According to the supplement of paper PMC3334620:
In all, about 33,000 sequences were measured (“E-score (-0.5 to 0.5)”: median about -0.0034, highest 2% from about 0.25 on). The list shows a part of the results.

What follows are sequences tested against T1, Yap3 (UniProt P38749) (assay: PBM E-score (8-mer binding enrichment) (E-score (-0.5 to 0.5)); higher = stronger / more preferred TF binding). Conditions: protein concentration: 100 nM; construct: GST-full length.
T1 sequence: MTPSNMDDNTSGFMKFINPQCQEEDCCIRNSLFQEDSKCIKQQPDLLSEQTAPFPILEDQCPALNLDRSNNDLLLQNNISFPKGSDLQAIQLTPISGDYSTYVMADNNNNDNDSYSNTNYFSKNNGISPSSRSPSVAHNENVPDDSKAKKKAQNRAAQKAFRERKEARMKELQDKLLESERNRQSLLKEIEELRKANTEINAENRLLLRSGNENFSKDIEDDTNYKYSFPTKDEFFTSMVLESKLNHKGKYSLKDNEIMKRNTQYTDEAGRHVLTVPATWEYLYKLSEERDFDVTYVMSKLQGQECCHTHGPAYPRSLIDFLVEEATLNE
In short: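 Using PURExpress in vitro transcription/translation, GST-tagged yeast transcription factors were made in full-length or DNA-binding-domain form. These were applied at about 100-200 nM to double-stranded universal all-10-mer Agilent arrays, and bound protein was detected with fluorescent anti-GST. Scans were normalised with masliner before the Universal PBM Analysis Suite assigned E-scores to ungapped eight-base words pooled with their reverse complements.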

Sequence | PBM E-score
AACGGTCA | 0.0629
AACCACAG | -0.0877
ACCATGCC | -0.0126
GTCGAGGA | -0.119
AAGGCGTC | -0.0529
TAGATACA | 0.0774
ACGAAATA | 0.0697
GCCGTACC | -0.163
CAGGCCGG | -0.333
CTACTGCA | -0.207
ATCACTGA | -0.192
ATCGTCAG | -0.0651
GAAATATA | 0.248
CAAGAGAG | -0.0663
CGCCTGTC | -0.211
CAGTCAGG | -0.0935
ACGCCAAT | 0.133
CCTCGCAG | -0.106
AATAGACG | 0.153
ATTGTGAG | 0.0597
CCGTGGAG | -0.138
CCTGCCCA | -0.132
CAGTCCGA | -0.0781
CCCTCATC | -0.104
CATGCGAA | -0.0126

Sequence | PBM E-score
CTGTAAAG | -0.0693
TTACAAAA | 0.256
ATAATCAC | 0.231
AAGCCGAT | 0.158
GGCCCAGA | -0.291
CCGTGCTC | -0.161
CCTCTGAA | -0.0144
GGTATGAC | 0.0231
ATATGTTC | 0.184
CCTCGTCC | -0.24
GGACTAAC | -0.134
CAGTCGAG | -0.112
ACATAAAT | 0.239
AGGTCATA | 0.0126
GCCCCACC | -0.0294
AGTGGCCC | -0.105
CAATCCGA | 0.138
AGCCTAAC | -0.158
GACCTGGA | -0.125
AACCTCCT | -0.0549
AAAGAATG | 0.115
ACTACCCA | -0.0314
CCTGCGGC | -0.361
AAACCACC | 0.0609
AGAAGATC | -0.0464

Sequence | PBM E-score
CCCCGGGA | -0.261
CCAGTGCA | -0.144
CCGAGCTC | 0.0167
AGCAACAT | -0.00444
CAGATCCC | -0.177
CACAACCG | 0.0416
ATAAGATC | 0.0129
GGCAGCCA | -0.0896
CCTTCTTA | 0.00916
GCTCTAGA | -0.245
ATGGACGA | 0.0949
ATGTGGAC | -0.0215
CTACTTGA | 0.0551
ATGTCTCC | 0.0848
ACCGGGAG | -0.262
TAACACTA | 0.245
ACCAAAAC | 0.104
GAATATCA | 0.159
CTGGACGC | -0.133
CGTGAAGA | -0.0711
GGACCGGA | -0.112
AGGACCGG | -0.305
ACGACAGA | 0.0226
GACGAGCA | -0.0184
ACTCCGCG | 0.0459

Quoted from the results shown (six entries):
Sequence | PBM E-score
AGGTCATA | 0.0126
GCCCCACC | -0.0294
AGTGGCCC | -0.105
CAATCCGA | 0.138
AGCCTAAC | -0.158
GACCTGGA | -0.125

The list goes on.

Sequence | PBM E-score
GTGGAATA | 0.084
CTCTGATC | -0.00192
ATCCAAGA | 0.026
CATGCTGG | -0.0666
ACTTCGAC | -0.0567
CGCCAAAA | 0.107
TGAGATAA | 0.181
GCGTAGAC | -0.231
CTGTTACC | -0.0269
TATTCCAA | 0.0984
GTGGCGTA | -0.0591
TCGACCAA | -0.0266
CATTCTTA | 0.0235
AGGAACTG | -0.237
ACCGCCAA | -0.00074
ACCGGCGC | 0.0314
ATGTTGTG | 0.119
AGAGTAAA | 0.0554
GCGAGCTA | -0.00275
ACAGTCAA | 0.0437
CATTGTCG | -0.022
AACACAAA | 0.202
TCAAAGCA | 0.144
ACGTTACT | 0.141
ATGCGTCC | -0.221

Sequence | PBM E-score
ATAGTAAC | 0.218
GGACGCAA | -0.0406
TAACAGTA | 0.207
CGTGCCCC | -0.235
CGCTACGA | 0.0231
CTGTGTGC | -0.201
CACAGGAG | -0.0309
CTCGAACC | -0.0728
GAAACTAC | 0.127
CCTCCAGC | -0.305
ATATACAT | 0.168
ATTGTTTA | 0.0804
GAACACTA | 0.0354
AGGTATTG | 0.114
ACGACCTC | 0.0252
CATTGTAG | 0.0549
CTTGTTCC | 0.0876
ATAGTTCG | 0.053
CTGTGAAA | 0.264
ACGCACGA | 0.131
CAGGCTAG | -0.237
CGTGTCAG | 0.159
AAATTCCT | 0.00181
GGACCGTA | -0.197
CCCGCGGG | -0.169

Sequence | PBM E-score
ATCGTCTG | -0.242
ACGTGCCA | -0.0528
ACTGGGAC | 0.0285
AGACGATC | -0.233
CATACCAA | 0.11
CTGCGTTC | 0.0475
CCGGAGTA | 0.0373
GCACAGAA | -0.0255
GCACAGCA | -0.107
AACAACGT | 0.145
CTGATAAA | 0.221
ACTATATA | 0.328
CCCGACCC | -0.221
ACCGACAG | -0.0895
ACCGAGTC | -0.174
CATGCTAC | -0.179
AGGCCCAG | -0.24
GATAGCCA | -0.0311
ATATTCGG | 0.115
ATTTACGC | 0.127
TATACTAA | 0.113
GGCGGCCA | -0.056
CGTCAGTC | 9e-05
GGCGCCAA | 0.0353
CGCACACA | 0.16

Sequence | PBM E-score
AAGTTTCA | 0.11
GCTTGCTA | -0.279
AGTTGAGA | -0.054
CCGACTTA | 0.0921
AACAAAGG | 0.141
CCACCACA | -0.104
GTGTCGAA | -0.0549
AGAGTCAG | -0.0772
ATTGTGTA | 0.188
AGCAGGAG | -0.169
AACCCTGG | -0.141
AGTGGGTG | 0.0723
ACATATCT | 0.0612
CGCTGTTA | -0.049
AATGTGTG | 0.147
ACTTAGCC | -0.00723
CCTTGACA | -0.0894
CTTTTTGA | -0.00681
CATTGCCG | 0.0454
AGTAGACA | 0.00632
CCCGTCAA | -0.183
CACACTTC | 0.0074
